From the supplement of paper PMC6078165

Test system: MDAMB436
Experiment: relative JC-1 red fluorescence (viability) vs pre-drug, coculture with fibroblast (fraction); higher = more viable cancer cells
Experimental: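 JC-1 labelled TNBC cells cocultured 1:1 (1,500 cells each) with CellTrace Violet stained primary or stromal fibroblasts in 384-well plates in FluoroBrite medium, treated with one of 42 anticancer drugs at 0.1, 1, 10 or 100 uM. JC-1 red fluorescence (mitochondrial integrity in cancer cells only) was read by plate reader every 8 h for 72 h. Values are normalised to each well's pre-drug value. The stock of one drug was tenfold lower, so its dose labels may be too high.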

CC[C@]1(O)C[C@@H]2CN(CCc3c([nH]c4ccccc34)[C@@](C(=O)OC)(c3cc4c(cc3OC)N(C)[C@H]3[C@@](O)(C(=O)OC)[C@H](OC(C)=O)[C@]5(CC)C=CCN6CC[C@]43[C@@H]65)C2)C1 [Vinblastine]
relative JC-1 red fluorescence
Conditions	8 h	16 h	24 h	32 h	40 h	48 h	56 h	64 h	72 h
0.1 µM, coculture fibroblast: C12385	0.7429 ± 0.0017	0.723 ± 0.024	0.722 ± 0.023	0.659 ± 0.019	0.634 ± 0.015	0.625 ± 0.017	0.619 ± 0.012	0.62 ± 0.019	0.642 ± 0.015
0.1 µM, coculture fibroblast: H6013	0.815 ± 0.033	0.849 ± 0.058	0.872 ± 0.073	0.897 ± 0.09	0.932 ± 0.089	0.866 ± 0.089	0.895 ± 0.041	0.912 ± 0.046	0.837 ± 0.14
0.1 µM, coculture fibroblast: H6019	0.75 ± 0.037	0.752 ± 0.055	0.748 ± 0.071	0.688 ± 0.075	0.673 ± 0.095	0.67 ± 0.11	0.657 ± 0.11	0.656 ± 0.11	0.661 ± 0.11
0.1 µM, coculture fibroblast: H6076	0.7624 ± 0.0058	0.7246 ± 0.0016	0.7489 ± 0.0047	0.721 ± 0.0095	0.732 ± 0.015	0.72 ± 0.017	0.762 ± 0.026	0.775 ± 0.022	0.783 ± 0.02
0.1 µM, coculture fibroblast: H6231	0.769 ± 0.012	0.694 ± 0.015	0.71 ± 0.031	0.619 ± 0.023	0.6 ± 0.026	0.571 ± 0.029	0.559 ± 0.03	0.537 ± 0.02	0.525 ± 0.017
0.1 µM, coculture fibroblast: HADF	0.802 ± 0.024	0.7152 ± 0.002	0.691 ± 0.019	0.666 ± 0.029	0.65 ± 0.034	0.685 ± 0.036	0.628 ± 0.038	0.63 ± 0.025	0.606 ± 0.03
0.1 µM, coculture fibroblast: HCFa	0.762 ± 0.03	0.736 ± 0.038	0.716 ± 0.049	0.697 ± 0.054	0.688 ± 0.068	0.708 ± 0.069	0.651 ± 0.077	0.654 ± 0.069	0.601 ± 0.073
0.1 µM, coculture fibroblast: HCPF	0.728 ± 0.021	0.686 ± 0.019	0.692 ± 0.016	0.633 ± 0.013	0.6261 ± 0.0057	0.598 ± 0.0086	0.58166 ± 0.00053	0.574 ± 0.011	0.566 ± 0.011
0.1 µM, coculture fibroblast: HHSteC	0.79 ± 0.028	0.767 ± 0.009	0.735 ± 0.013	0.7011 ± 0.0033	0.7 ± 0.008	0.713 ± 0.013	0.671 ± 0.017	0.658 ± 0.018	0.631 ± 0.021
0.1 µM, coculture fibroblast: HMF	0.7252 ± 0.0032	0.681 ± 0.019	0.668 ± 0.028	0.62 ± 0.048	0.616 ± 0.051	0.579 ± 0.049	0.597 ± 0.045	0.579 ± 0.049	0.578 ± 0.059
0.1 µM, coculture fibroblast: HPFa	0.898 ± 0.013	0.8141 ± 0.0015	0.773 ± 0.039	0.728 ± 0.044	0.72 ± 0.061	0.716 ± 0.06	0.661 ± 0.065	0.644 ± 0.075	0.614 ± 0.071
0.1 µM, coculture fibroblast: HUF	0.844 ± 0.022	0.739 ± 0.031	0.72 ± 0.028	0.655 ± 0.029	0.608 ± 0.02	0.577 ± 0.017	0.553 ± 0.012	0.539 ± 0.015	0.536 ± 0.0053
0.1 µM, coculture fibroblast: Hs5	0.786 ± 0.016	0.761 ± 0.014	0.751 ± 0.01	0.694 ± 0.021	0.695 ± 0.024	0.646 ± 0.031	0.658 ± 0.035	0.639 ± 0.042	0.648 ± 0.04
0.1 µM, coculture fibroblast: Hs27A	0.855 ± 0.053	0.798 ± 0.076	0.793 ± 0.11	0.788 ± 0.13	0.79 ± 0.14	0.869 ± 0.14	0.783 ± 0.15	0.799 ± 0.15	0.726 ± 0.13
0.1 µM, coculture fibroblast: Hs343T	0.80607 ± 0.00021	0.7511 ± 0.0018	0.718 ± 0.011	0.673 ± 0.0089	0.641 ± 0.018	0.599 ± 0.015	0.579 ± 0.0087	0.559 ± 0.0027	0.548 ± 0.0055
0.1 µM, coculture fibroblast: WS1	0.7691 ± 0.0052	0.717 ± 0.027	0.705 ± 0.022	0.634 ± 0.011	0.609 ± 0.0069	0.5955 ± 0.0013	0.589 ± 0.013	0.585 ± 0.014	0.593 ± 0.019
1 µM, coculture fibroblast: C12385	0.79 ± 0.014	0.7002 ± 0.0069	0.705 ± 0.013	0.636 ± 0.013	0.603 ± 0.01	0.581 ± 0.01	0.56 ± 0.016	0.547 ± 0.0084	0.559 ± 0.018
1 µM, coculture fibroblast: H6013	0.854 ± 0.021	0.8475 ± 0.0023	0.865 ± 0.015	0.886 ± 0.018	0.893 ± 0.022	0.943 ± 0.039	0.922 ± 0.044	0.924 ± 0.057	0.898 ± 0.065
1 µM, coculture fibroblast: H6019	0.7622 ± 0.0037	0.751 ± 0.0083	0.757 ± 0.022	0.718 ± 0.031	0.708 ± 0.031	0.71 ± 0.029	0.691 ± 0.035	0.695 ± 0.032	0.693 ± 0.038
1 µM, coculture fibroblast: H6076	0.797 ± 0.027	0.757 ± 0.029	0.773 ± 0.038	0.74 ± 0.039	0.724 ± 0.032	0.701 ± 0.035	0.723 ± 0.031	0.735 ± 0.034	0.739 ± 0.036
1 µM, coculture fibroblast: H6231	0.834 ± 0.0066	0.759 ± 0.019	0.75297 ± 0.00065	0.677 ± 0.02	0.642 ± 0.013	0.614 ± 0.023	0.59 ± 0.024	0.557 ± 0.028	0.534 ± 0.028
1 µM, coculture fibroblast: HADF	0.8246 ± 0.0082	0.763 ± 0.012	0.735 ± 0.026	0.717 ± 0.039	0.7 ± 0.054	0.719 ± 0.062	0.656 ± 0.042	0.649 ± 0.05	0.623 ± 0.046
1 µM, coculture fibroblast: HCFa	0.796 ± 0.022	0.782 ± 0.018	0.755 ± 0.017	0.726 ± 0.014	0.704 ± 0.024	0.725 ± 0.015	0.66 ± 0.023	0.654 ± 0.018	0.611 ± 0.019
1 µM, coculture fibroblast: HCPF	0.793 ± 0.021	0.698 ± 0.011	0.6963 ± 0.0013	0.642 ± 0.015	0.6238 ± 0.0031	0.591 ± 0.0097	0.564 ± 0.0075	0.547 ± 0.0086	0.524 ± 0.013
1 µM, coculture fibroblast: HHSteC	0.82 ± 0.009	0.822 ± 0.018	0.804 ± 0.029	0.762 ± 0.028	0.764 ± 0.025	0.778 ± 0.02	0.715 ± 0.027	0.697 ± 0.028	0.662 ± 0.026
1 µM, coculture fibroblast: HMF	0.777 ± 0.069	0.767 ± 0.062	0.765 ± 0.062	0.73 ± 0.057	0.711 ± 0.048	0.679 ± 0.043	0.675 ± 0.019	0.656 ± 0.014	0.63 ± 0.0094
1 µM, coculture fibroblast: HPFa	0.925 ± 0.028	0.877 ± 0.023	0.865 ± 0.026	0.823 ± 0.034	0.825 ± 0.029	0.842 ± 0.026	0.778 ± 0.029	0.763 ± 0.017	0.714 ± 0.019
1 µM, coculture fibroblast: HUF	0.884 ± 0.031	0.794 ± 0.029	0.771 ± 0.057	0.698 ± 0.075	0.644 ± 0.078	0.619 ± 0.089	0.593 ± 0.099	0.577 ± 0.09	0.575 ± 0.089
1 µM, coculture fibroblast: Hs5	0.764 ± 0.027	0.749 ± 0.013	0.762 ± 0.016	0.711 ± 0.015	0.713 ± 0.019	0.674 ± 0.014	0.697 ± 0.017	0.68 ± 0.017	0.696 ± 0.018
1 µM, coculture fibroblast: Hs27A	0.963 ± 0.014	0.9077 ± 0.0063	0.937 ± 0.027	0.932 ± 0.07	0.922 ± 0.11	0.9091 ± 0.0033	0.898 ± 0.13	0.889 ± 0.13	0.815 ± 0.13
1 µM, coculture fibroblast: Hs343T	0.7878 ± 0.0063	0.7503 ± 0.0054	0.735 ± 0.01	0.6901 ± 0.0041	0.66 ± 0.016	0.625 ± 0.013	0.604 ± 0.018	0.58 ± 0.023	0.569 ± 0.022
1 µM, coculture fibroblast: WS1	0.7942 ± 0.0077	0.744 ± 0.034	0.723 ± 0.017	0.655 ± 0.019	0.618 ± 0.014	0.593 ± 0.017	0.573 ± 0.026	0.56 ± 0.027	0.567 ± 0.028

± gives the standard deviation of the averaged measurements. Values are relative to the signal before dosing, not to a vehicle control; the signal also falls without drug.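 Labels refer to human fibroblasts, largely primary: uterine (C12385, HUF), lung (H6013), bone (Hs27A), adrenal (HADF), skin (WS1), plus mammary HMF and breast cancer-associated Hs343T. Cancer lines are basal-like or mesenchymal-like triple-negative breast cancer. The paper counts as hits responses shifting over 3x the replicate standard deviation. The tissue of the other fibroblasts is not given here.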
